Results taken from US20080051464A1, “Protein phosphatase inhibitors” (The Cleveland Clinic Foundation, priority 2006, published 2008).
Some entries share one result that the patent states for a list of compounds. For at least one compound, name, drawing or mass did not settle the structure.

Test system: melanoma MeI-7, colon cancer MC-26, breast cancer 4T1 and prostate cancer DU145
Test: cyto-toxicity against four other cancer cell lines (MTT assay)
Assay type: cell-based
Conditions: MeI-7, MC-26, 4T1, DU145
Text: L5, L6 and L6 analogs (Chembridge), mouse IFNγ ELISPOT Kit (R & D System) and antibody against pLck-pY394 or pERK1/2 (Cell Signaling) were purchased from commercial sources. Human Jurkat T cell line and murine B16 melanoma cell line (ATCC) and other cancer cell lines were maintained in […] culture medium supplemented with 10% fetal calf serum (FCS). The effects of chemical compounds on cancer cell growth in culture were quantified by MTT assays following our established procedures.

Structure (SMILES): Cc1cc(-n2sc(Cl)c(C)c2=O)ccc1Cl [L6a6]
- effective dose for complete kill as share of those for B16 cells: 10-50%
